These are yes or no findings as the source states them, for the method shown. A result given as binding can be weak or reduced; the word gives no strength. Sequences can lack the tags named with a protein.
How the values were obtained:
[1] = molecular target: BMP type IB receptor (BMPR-IB), wild type; assay: affinity cross-linking and immunoprecipitation
[2] = molecular target: BMP type IB receptor (BMPR-IB), kinase-defective; assay: affinity cross-linking with 125I-OP-1/BMP-7, immunoprecipitation, autoradiography
[3] = molecular target: BMP type IB receptor (BMPR-IB), wild type; assay: as above

Measured: binding

B1: FLAG-tagged Smad6 (protein, not shown: small tags and cut ends)
chain: MFRSKRSGLVRRLWRSRVVPDREEGSGGGGGVDEDGSLGSRAEPAPRAREGGGCSRSEVRSVAPRRPRDAVGPRGAAIAGRRRRTGGLPRPVSESGAGAGGSPLDVAEPGGPGWLPESDCETVTCCLFSERDAAGAPRDSGDPQARQSPEPEEGGGPRSREARSRLLLLEQELKTVTYSLLKRLKERSLDTLLEAVESRGGVPGGCVLVPRADLRLGGQPAPPQLLLGRLFRWPDLQHAVELKPLCGCHSFTAAADGPTVCCNPYHFSRLCGPESPPPPYSRLSPPDQYKPLDLSDSTLSYTETEATNSLITAPGEFSDASMSPDATKPSHWCSVAYWEHRTRVGRLYAVYDQAVSIFYDLPQGSGFCLGQLNLEQRSESVRRTRSKIGFGILLSKEPDGVWAYNRGEHPIFVNSPTLDAPGGRALVVRKVPPGYSIKVFDFERSGLLQHADAAHGPYDPHSVRISFAKGWGPCYSRQFITSCPCWLEILLNNHR
binds: [1] | [2] | [3]
